For this assay, the target named is ClfA35-559 from pETM-10 (for ELISA) (S. aureus) (UniProt Q53653). Kind of assay: ELISA; plates coated with 1 μg/well ClfA in PBS overnight at 4 °C, blocked with 2% BSA in PBS-T; AnnexinA2 or BSA (0–2000 nM) 1 h at RT; detected with anti-AnnexinA2 antibody and HRP secondary; triplicate; both purified.

The chains behind the UniProt entries cited, without tags or fusion partners. Residues count along the entry.
UniProt Q53653, residues 35-559: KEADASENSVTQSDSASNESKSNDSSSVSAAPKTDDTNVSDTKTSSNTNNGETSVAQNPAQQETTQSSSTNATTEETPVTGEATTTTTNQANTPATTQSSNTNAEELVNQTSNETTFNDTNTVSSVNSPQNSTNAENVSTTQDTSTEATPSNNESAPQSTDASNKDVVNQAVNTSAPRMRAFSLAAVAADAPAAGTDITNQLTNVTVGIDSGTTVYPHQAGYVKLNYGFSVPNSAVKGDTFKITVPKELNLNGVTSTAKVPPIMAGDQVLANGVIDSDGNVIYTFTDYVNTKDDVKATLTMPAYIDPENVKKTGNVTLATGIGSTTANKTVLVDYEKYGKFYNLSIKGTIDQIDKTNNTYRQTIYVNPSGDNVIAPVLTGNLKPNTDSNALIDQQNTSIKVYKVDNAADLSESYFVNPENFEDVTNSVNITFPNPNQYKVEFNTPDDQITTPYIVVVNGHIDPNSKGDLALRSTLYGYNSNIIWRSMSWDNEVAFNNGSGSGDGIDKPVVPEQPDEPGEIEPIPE
UniProt P02769, residues 25-607: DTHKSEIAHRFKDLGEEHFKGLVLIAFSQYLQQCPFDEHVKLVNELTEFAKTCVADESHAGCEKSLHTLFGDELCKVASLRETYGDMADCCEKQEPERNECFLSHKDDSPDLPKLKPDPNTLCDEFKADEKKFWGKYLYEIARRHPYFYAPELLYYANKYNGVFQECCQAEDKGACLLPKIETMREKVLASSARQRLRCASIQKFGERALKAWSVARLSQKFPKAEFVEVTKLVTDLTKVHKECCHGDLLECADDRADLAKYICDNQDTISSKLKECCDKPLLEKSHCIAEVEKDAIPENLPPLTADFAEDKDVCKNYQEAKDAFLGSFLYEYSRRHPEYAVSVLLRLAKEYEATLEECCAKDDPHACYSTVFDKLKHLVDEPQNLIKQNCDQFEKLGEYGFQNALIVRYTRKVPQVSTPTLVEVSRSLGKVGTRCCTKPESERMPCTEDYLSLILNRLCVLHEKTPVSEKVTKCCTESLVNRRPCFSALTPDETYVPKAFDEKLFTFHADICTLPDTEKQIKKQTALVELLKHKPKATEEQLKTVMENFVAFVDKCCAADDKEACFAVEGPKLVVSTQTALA

Results are given in words; binding and its absence hold for the method and conditions named.

“Bovine serum albumin (BSA) (from UniProt P02769 25-607)”: the binding result was “no binding (tested: 0–2000 nM)”.

The values are drawn from PMC5244385.
